PMC5379520
Results are given in words; binding and its absence hold for the method and conditions named. In cells and extracts the contact can be indirect. Some results given as binding are weak or reduced against the parent protein; the word gives no strength.

The chains behind the UniProt entries cited, without tags or fusion partners.
UniProt P43694: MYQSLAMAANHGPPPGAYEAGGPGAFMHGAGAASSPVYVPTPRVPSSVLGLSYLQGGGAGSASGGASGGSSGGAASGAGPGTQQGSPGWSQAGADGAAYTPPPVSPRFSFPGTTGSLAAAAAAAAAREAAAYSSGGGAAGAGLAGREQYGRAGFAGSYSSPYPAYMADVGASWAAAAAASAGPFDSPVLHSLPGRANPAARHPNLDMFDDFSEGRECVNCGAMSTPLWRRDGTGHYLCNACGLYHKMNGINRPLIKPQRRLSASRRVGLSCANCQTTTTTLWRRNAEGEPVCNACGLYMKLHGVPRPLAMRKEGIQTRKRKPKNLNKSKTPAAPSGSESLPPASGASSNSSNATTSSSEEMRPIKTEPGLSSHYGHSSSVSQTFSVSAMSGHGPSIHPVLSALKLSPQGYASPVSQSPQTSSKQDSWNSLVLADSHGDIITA

Target: human GATA4 (human) (UniProt P43694)
Assay: co-IP; HEK293T co-transfected with GATA4 and wild-type or mutant ZFPM2; lysates 48 h after transfection incubated with HA affinity gel overnight at 4 °C; western blot, semi-quantitative analysis with ImageJ, three independent experiments

B1: human ZFPM2/FOG2 protein, wild type (protein, UniProt Q8WW38 1-1151)
chain: MSRRKQSKPRQIKRPLEDAIEDEEEECPSEETDIISKGDFPLEESFSTEFGPENLSCEEVEYFCNKGDDEGIQETAESDGDTQSEKPGQPGVETDDWDGPGELEVFQKDGERKIQSRQQLPVGTTWGPFPGKMDLNNNSLKTKAQVPMVLTAGPKWLLDVTWQGVEDNKNNCIVYSKGGQLWCTTTKAISEGEELIAFVVDFDSRLQAASQMTLTEGMYPARLLDSIQLLPQQAAMASILPTAIVNKDIFPCKSCGIWYRSERNLQAHLMYYCSGRQREAAPVSEENEDSAHQISSLCPFPQCTKSFSNARALEMHLNSHSGVKMEEFLPPGASLKCTVCSYTADSVINFHQHLFSHLTQAAFRCNHCHFGFQTQRELLQHQELHVPSGKLPRESDMEHSPSATEDSLQPATDLLTRSELPQSQKAMQTKDASSDTELDKCEKKTQLFLTNQRPEIQPTTNKQSFSYTKIKSEPSSPRLASSPVQPNIGPSFPVGPFLSQFSFPQDITMVPQASEILAKMSELVHRRLRHGSSSYPPVIYSPLMPKGATCFECNITFNNLDNYLVHKKHYCSSRWQQMAKSPEFPSVSEKMPEALSPNTGQTSINLLNPAAHSADPENPLLQTSCINSSTVLDLIGPNGKGHDKDFSTQTKKLSTSSNNDDKINGKPVDVKNPSVPLVDGESDPNKTTCEACNITFSRHETYMVHKQYYCATRHDPPLKRSASNKVPAMQRTMRTRKRRKMYEMCLPEQEQRPPLVQQRFLDVANLNNPCTSTQEPTEGLGECYHPRCDIFPGIVSKHLETSLTINKCVPVSKCDTTHSSVSCLEMDVPIDLSKKCLSQSERTTTSPKRLLDYHECTVCKISFNKVENYLAHKQNFCPVTAHQRNDLGQLDGKVFPNPESERNSPDVSYERSIIKCEKNGNLKQPSPNGNLFSSHLATLQGLKVFSEAAQLIATKEENRHLFLPQCLYPGAIKKAKGADQLSPYYGIKPSDYISGSLVIHNTDIEQSRNAENESPKGQASSNGCAALKKDSLPLLPKNRGMVIVNGGLKQDERPAANPQQENISQNPQHEDDHKSPSWISENPLAANENVSPGIPSAEEQLSSIAKGVNGSSQAPTSGKYCRLCDIQFNNLSNFITHKKFYCSSHAAEHVK
binding: binds
